Measurements as given in patent US11142543B2 (priority 2016, dated 2021).
Marks after values point to notes of the source that are not given here.

System: ICR mice with ethanol-induced memory reproduction disorder
Settings: i.g. once a day for three consecutive weeks, donepezil 1.6 mg/kg, C-49 15 mg/kg, n = 10
Description: Learning memory is an advanced function of the human and animal brains.
Before the retesting after training, the ethanol solution was administered to the mouse to block the memory reproduction process of the animal, resulting in memory reproduction disorder.
Male ICR mice, 16-18 g, were purchased from Shanghai Sippr-BK laboratory animal Co. Ltd.
40 male mice were randomly divided into 4 groups by Excel, and each group contained 10 animals. The mice in group 1 (blank group) and mice in group 2 (model group) were orally administered (i.g.) with drinking water daily.
After 3 weeks of administration, 1 hour after the last administration, the exercise was performed once in the dark avoidance method. The mice were placed in a dark avoidance box, and placed in the bright room with the back facing the hole. At the same time, the video analysis device was activated, and the animal passed through the hole into the dark room and received an electric shock, and the timing was automatically stopped. The mice were removed and the screen analysis would record the time required for each mouse to experience an electric shock from the bright room to the dark room, which was the latency period. After 24 h, the test was carried out, and 45% ethanol solution (0.1 ml/10 g) was orally administered 30 min before the test. The video analysis system would automatically record all relevant data of the animal. Data were expressed as mean standard deviation (x±s), and data difference statistics were analyzed by one-way variance (ANOVA) or X^2 test. The difference between groups was judged by P<0.05.

For COc1cc2c(cc1OC)C(=O)C(CC1CCN(Cc3ccccc3)CC1)C2 (stereo not drawn) [donepezil, reference compound], the “Number of shocked animals” value was 2*, the “Total number of errors (within 5 min)” value was 6 and the “Latency period from an open room to a dark room” value (x ± s) was 220.1 ± 130.5 s.
